The results in this text go back to article PMC3316532.

Results are given in words; binding and its absence hold for the method and conditions named. Binding seen in cells or lysates may run through a third protein.

This experiment concerns the target T1, Excitatory Amino Acid Carrier 1 (EAAC1), rat (rat (endogenous in hippocampus, cortex, heart and C6 glioma cells)) (UniProt P51907).
T1 sequence: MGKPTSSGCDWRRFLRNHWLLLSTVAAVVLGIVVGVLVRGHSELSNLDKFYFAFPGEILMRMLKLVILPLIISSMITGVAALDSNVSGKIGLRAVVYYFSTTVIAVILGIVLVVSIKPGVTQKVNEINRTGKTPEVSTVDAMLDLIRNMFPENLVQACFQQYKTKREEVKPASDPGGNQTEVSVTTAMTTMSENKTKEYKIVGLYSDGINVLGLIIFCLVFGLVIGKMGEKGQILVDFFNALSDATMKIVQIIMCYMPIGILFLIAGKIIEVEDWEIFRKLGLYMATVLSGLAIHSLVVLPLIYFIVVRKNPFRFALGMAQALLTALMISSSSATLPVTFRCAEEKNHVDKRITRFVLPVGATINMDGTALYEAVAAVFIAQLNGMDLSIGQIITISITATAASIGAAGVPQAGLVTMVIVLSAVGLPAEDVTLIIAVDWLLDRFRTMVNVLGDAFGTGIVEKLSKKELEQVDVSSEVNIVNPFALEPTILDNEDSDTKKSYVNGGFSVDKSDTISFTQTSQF
The experiment is described as follows: co-IP; mitochondrial protein extracts from rat hippocampus and cortex; immunoprecipitation with mouse monoclonal anti-EAAC1 or anti-NCX1 (R3F1) antibody, A-Sepharose beads, western blot; normal mouse serum as negative control.

For the substance “adenine nucleotide translocase (ANT), rat”, the binding result is on record as “no binding”.
